Measurements from patent US20250266123A1, “IN SILICO METHOD OF IDENTIFYING ALLOSTERIC HECT E3-LIGASE INHIBITORS” (Ramot at Tel-Aviv University Ltd., priority 2024, published 2025).
For at least one compound, name, drawing or mass did not settle the structure.

Tested on: SMURF1 mRNA
Test: Screen for modulators of SMURF1 mRNA abundance in PASMCs
Type: cell-based, human
Conditions: PASMCs from PAH patients; normalized Ct values
Description: FIG. 13. (A) Screen for modulators of SMURF1 mRNA abundance in PASMCs. Human PASMCs from PAH patients were treated with agents that are associated with PAH, including cytokines, chemokines, growth factors, and small molecule pathway probes, and were cultured under hypoxic conditions to identify modulators of SMURF1 mRNA (n=2 donors). […] The human SMURF1 promoter was stably transfected into HEK293 cells upstream of a GFP sequence.

Question: Which “SMURF1 expression (mRNA)” value does the source give for C=CC[C@@H]1/C=C(\C)C[C@H](C)C[C@H](OC)[C@H]2O[C@@](O)(C(=O)C(=O)N3CCCC[C@H]3C(=O)O[C@H](/C(C)=C/[C@@H]3CC[C@@H](O)[C@H](OC)C3)[C@H](C)[C@@H](O)CC1=O)[C@H](C)C[C@@H]2OC [FK506, reference compound] here?
Answer: The value was “reduce SMURF1 expression”.
